The target in experiment [1] is AHG1, split YFP fusion (Arabidopsis thaliana) (UniProt Q9FLI3). The experiment in a line: split reporter.
In experiment [2] the target is T1, GRF3 (14-3-3 psi), split YFP fusion (Arabidopsis thaliana) (UniProt P42644).
T1 sequence: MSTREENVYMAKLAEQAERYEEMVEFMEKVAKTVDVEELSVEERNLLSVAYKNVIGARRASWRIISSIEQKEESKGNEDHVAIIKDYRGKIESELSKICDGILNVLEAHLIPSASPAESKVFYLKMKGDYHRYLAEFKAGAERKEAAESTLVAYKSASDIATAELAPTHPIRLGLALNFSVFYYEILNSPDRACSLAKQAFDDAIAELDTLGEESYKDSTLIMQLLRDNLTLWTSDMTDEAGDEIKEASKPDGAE
The experiment can be described thus: split reporter.

Experiment [3] has as its target T2, GRF4 (14-3-3 phi), split YFP fusions (Arabidopsis thaliana) (UniProt P46077).
T2 sequence: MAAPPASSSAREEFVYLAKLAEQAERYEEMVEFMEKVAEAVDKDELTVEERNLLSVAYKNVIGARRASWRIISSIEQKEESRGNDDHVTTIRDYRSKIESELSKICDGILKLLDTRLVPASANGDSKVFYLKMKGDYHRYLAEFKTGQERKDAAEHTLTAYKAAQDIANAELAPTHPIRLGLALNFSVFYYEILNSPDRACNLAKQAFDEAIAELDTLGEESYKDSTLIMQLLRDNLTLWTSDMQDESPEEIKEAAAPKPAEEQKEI
The experiment can be described thus: split reporter.

Experiment [4] has as its target T3, GRF7 (14-3-3 nu), split YFP fusion (Arabidopsis thaliana) (UniProt Q96300).
T3 sequence: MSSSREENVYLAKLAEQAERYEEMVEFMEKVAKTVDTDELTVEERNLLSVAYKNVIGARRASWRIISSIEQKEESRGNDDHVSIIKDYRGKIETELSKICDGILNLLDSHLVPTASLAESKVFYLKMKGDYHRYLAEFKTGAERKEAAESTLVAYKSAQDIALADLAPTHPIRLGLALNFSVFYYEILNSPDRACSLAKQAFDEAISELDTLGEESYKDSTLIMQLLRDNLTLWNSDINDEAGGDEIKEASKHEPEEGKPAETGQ
The experiment in a line: split reporter.

For experiment [5], the target named is T4, SnRK2.6, split YFP fusion (Arabidopsis thaliana) (UniProt Q940H6).
T4 sequence: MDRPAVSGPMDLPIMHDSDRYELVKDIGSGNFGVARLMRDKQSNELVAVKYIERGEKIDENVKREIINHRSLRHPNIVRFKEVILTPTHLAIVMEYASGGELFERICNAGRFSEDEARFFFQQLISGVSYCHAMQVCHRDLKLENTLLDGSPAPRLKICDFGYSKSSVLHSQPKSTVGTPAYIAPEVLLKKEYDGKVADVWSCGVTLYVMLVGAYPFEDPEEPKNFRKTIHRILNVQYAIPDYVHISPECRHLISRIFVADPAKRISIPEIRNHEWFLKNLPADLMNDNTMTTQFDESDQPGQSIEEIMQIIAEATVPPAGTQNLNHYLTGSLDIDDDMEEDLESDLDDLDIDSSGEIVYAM
The experiment in a line: split reporter.

Experiment [6] concerns the target T5, ABI5-Binding Protein 1 (AFP1), yeast two-hybrid fusions (Arabidopsis thaliana) (UniProt Q9LQ98).
T5 sequence: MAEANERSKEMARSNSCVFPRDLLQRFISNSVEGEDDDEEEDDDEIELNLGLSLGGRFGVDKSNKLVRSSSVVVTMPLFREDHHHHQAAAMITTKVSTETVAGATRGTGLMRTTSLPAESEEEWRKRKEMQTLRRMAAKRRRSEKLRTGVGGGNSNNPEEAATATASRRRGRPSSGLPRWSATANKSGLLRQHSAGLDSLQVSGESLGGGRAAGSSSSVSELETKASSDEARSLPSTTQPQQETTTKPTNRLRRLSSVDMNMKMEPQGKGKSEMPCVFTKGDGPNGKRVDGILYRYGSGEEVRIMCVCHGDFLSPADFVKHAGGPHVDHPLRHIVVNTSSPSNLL
The experiment can be described thus: two-hybrid.

Experiment [7] deals with T6, ABI5-Binding Protein 2 (AFP2), yeast two-hybrid fusions (Arabidopsis thaliana) (UniProt Q9LMX5).
T6 sequence: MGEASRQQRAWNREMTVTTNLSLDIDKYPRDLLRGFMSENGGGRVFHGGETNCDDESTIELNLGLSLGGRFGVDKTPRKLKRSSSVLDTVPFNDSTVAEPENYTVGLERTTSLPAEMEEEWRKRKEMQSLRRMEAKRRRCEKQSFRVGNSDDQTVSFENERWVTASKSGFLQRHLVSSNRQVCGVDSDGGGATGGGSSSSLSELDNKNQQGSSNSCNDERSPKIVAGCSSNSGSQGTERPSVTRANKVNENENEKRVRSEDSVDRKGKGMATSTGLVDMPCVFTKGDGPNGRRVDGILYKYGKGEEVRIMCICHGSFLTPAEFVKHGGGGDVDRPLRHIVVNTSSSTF
The experiment can be described thus: two-hybrid.

Experiment [8] deals with T7, ABI5-Binding Protein 3 (AFP3), yeast two-hybrid fusions (Arabidopsis thaliana) (UniProt Q94F39).
T7 sequence: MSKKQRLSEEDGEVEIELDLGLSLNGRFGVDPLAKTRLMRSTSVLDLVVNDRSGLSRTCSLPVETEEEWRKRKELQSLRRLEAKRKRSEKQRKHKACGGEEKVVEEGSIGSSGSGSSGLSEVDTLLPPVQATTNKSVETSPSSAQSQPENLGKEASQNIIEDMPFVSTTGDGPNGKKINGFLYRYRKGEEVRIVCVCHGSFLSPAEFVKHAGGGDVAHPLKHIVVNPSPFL
The experiment in a line: two-hybrid.

Experiment [9] has as its target T8, ABI5-Binding Protein 4 (AFP4), yeast two-hybrid fusions (Arabidopsis thaliana) (UniProt Q9S7Z2).
T8 sequence: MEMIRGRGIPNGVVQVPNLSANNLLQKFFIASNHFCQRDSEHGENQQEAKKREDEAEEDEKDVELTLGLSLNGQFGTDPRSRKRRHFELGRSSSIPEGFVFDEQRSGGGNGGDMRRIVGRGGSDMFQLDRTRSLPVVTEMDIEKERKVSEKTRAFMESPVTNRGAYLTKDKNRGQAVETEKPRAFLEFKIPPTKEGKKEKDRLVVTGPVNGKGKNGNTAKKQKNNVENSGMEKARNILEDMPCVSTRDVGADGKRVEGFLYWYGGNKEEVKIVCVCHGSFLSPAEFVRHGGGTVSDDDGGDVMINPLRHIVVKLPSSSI
The experiment can be described thus: two-hybrid.

No constants are given. Whether binding was seen depends on the method and setting. For part of these data: Binding seen in cells or lysates may run through a third protein. Some binding calls cover weakened binding; strength is not graded here. Where a sequence is shown, tags or fusion partners need not be part of it.

For two molecules, binding results are on record in publication doi:10.1101/2024.10.11.617944.

B1: GRF4 (14-3-3 phi), split YFP fusions (protein, UniProt P46077 1-267)
chain: MAAPPASSSAREEFVYLAKLAEQAERYEEMVEFMEKVAEAVDKDELTVEERNLLSVAYKNVIGARRASWRIISSIEQKEESRGNDDHVTTIRDYRSKIESELSKICDGILKLLDTRLVPASANGDSKVFYLKMKGDYHRYLAEFKTGQERKDAAEHTLTAYKAAQDIANAELAPTHPIRLGLALNFSVFYYEILNSPDRACNLAKQAFDEAIAELDTLGEESYKDSTLIMQLLRDNLTLWTSDMQDESPEEIKEAAAPKPAEEQKEI
As for B1, the binding result is “binds weakly” in [1]; “binds” in experiment [2]; “binds” in experiment [3]; “binds” in experiment [4]; “binds” in experiment [5].

B2: ABA-… …ON 1 (AHG1), AD fusion (enzyme, UniProt Q9FLI3 1-416)
chain: MTEIYRTISTGRGDDVSPTKCRERRRRRIEMRRQAAVFGEPSSSRNRDRTDMEVYSSFDVPLRKQARRSEIGGLPADIGGFLAPPAASSCQKSEAPVWKGEETEDEPLYGIVSVMGRSRKMEDSVTVKPNLCKPEVNRQRPVHFFAVYDGHGGSQVSTLCSTTMHTFVKEELEQNLEEEEEGSENDVVERKWRGVMKRSFKRMDEMATSTCVCGTSVPLCNCDPREAAISGSTAVTAVLTHDHIIVANTGDSRAVLCRNGMAIPLSNDHKPDRPDERARIEAAGGRVLVVDGARVEGILATSRAIGDRYLKPMVAWEPEVTFMRRESGDECLVLASDGLWDVLSSQLACDIARFCLREETPSSLDLNRMAQEDDNDGEQNPSRSVLAATLLTRLALGRQSSDNISVVVIDLKNSSQ
Consider B2, for which the binding result in experiment [6], in experiment [7], in experiment [8] and in [9] was “binds” each time.
